Source: PubChem BioAssay AID493246 (Drosophila RNAi Screening Center, 2011)

- Test: 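Genome-wide search for dsRNAs that reduce cell number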 (primary screen)
- Cells: Drosophila Kc and S2R+ cells
- Knock-down reagent: long dsRNA against Drosophila genes
- Measurement: 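Cell number per well after knock-down, printed as raw plate values; calls were based on per-plate z-scores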
- Scale: Kc cell number and S2R+ cell number: higher = more cells remaining
- Active means: 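Active when the per-plate z-score of cell number is 3 or more in the direction of fewer cells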
The deposit covers about 21,000 reagents; shown is an unselected part of those that have a named target and a result. Of all reagents, 429 (2%) are marked active. 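Values are raw and not normalised between plates; calls rest on per-plate z-scores that were not deposited.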 No sequences are given here. Not stated in the record: the amount of reagent, the time to read-out.

target	dsRNA	Kc cell number, rep 1	Kc cell number, rep 2	S2R+ cell number, rep 1	S2R+ cell number, rep 2	activity call
Srrm1 (GeneID 39483)	DRSC09835	1.35e6	1.36e6	1.09e6	1.26e6	inactive
E2f1 (GeneID 42550)	DRSC16655	1.27e6	1.19e6	4.88e5	5.49e5	active
EMC1 (GeneID 40933)	DRSC15455	1.65e6	1.68e6	1.23e6	1.29e6	inactive
CG14613 (GeneID 33133)	DRSC20625	1.44e6	1.51e6	1.02e6	1.15e6	inactive
CG3704 (GeneID 31043)	DRSC18174	1.49e6	1.47e6	1.07e6	1.11e6	inactive
CG3704 (GeneID 31043)	DRSC18645	1.50e6	1.50e6	1.02e6	1.11e6	inactive
CG30376 (GeneID 246576)	DRSC05086	1.45e6	1.51e6	9.78e5	1.04e6	inactive
Grl58a (GeneID 37509)	DRSC04145	1.79e6	1.86e6	1.28e6	2.79e5	inactive
Cyp4ad1 (GeneID 35821)	DRSC07369	1.36e6	1.40e6	1.17e6	1.23e6	inactive
Dhit (GeneID 37037)	DRSC07411	1.34e6	1.38e6	1.14e6	1.20e6	inactive
Jabba (GeneID 37164)	DRSC06521	1.40e6	1.45e6	1.31e6	1.49e6	inactive
CG15916 (GeneID 32549)	DRSC19740	1.42e6	1.44e6	1.09e6	1.14e6	inactive
SPE (GeneID 42791)	DRSC15135	1.58e6	1.66e6	1.28e6	1.38e6	inactive
CG10324 (GeneID 42028)	DRSC14230	1.53e6	1.54e6	1.08e6	1.17e6	inactive
CG10576 (GeneID 38645)	DRSC09745	1.10e6	1.41e6	1.24e6	9.01e5	inactive
Cpr92F (GeneID 42450)	DRSC15819	1.35e6	1.38e6	1.22e6	1.34e6	inactive
CG8028 (GeneID 32923)	DRSC20075	1.59e6	1.58e6	1.09e6	1.21e6	inactive
CG16711 (GeneID 39135)	DRSC10220	1.25e6	1.30e6	1.22e6	1.32e6	inactive
CG3009 (GeneID 31402)	DRSC18263	5.58e5		8.48e5		inactive
CG8584 (GeneID 35856)	DRSC07217	1.63e6	1.66e6	1.29e6	1.47e6	inactive
CG3309 (GeneID 31450)	DRSC18301	1.61e6	1.56e6	9.87e5	1.17e6	inactive
CG14694 (GeneID 41307)	DRSC14917	1.39e6	1.40e6	1.33e6	1.44e6	inactive
Damm (GeneID 36266)	DRSC07393	1.70e6	1.79e6	1.41e6	1.50e6	inactive
CG11149 (GeneID 33800)	DRSC02130	1.51e6	1.35e6	1.13e6	1.21e6	inactive
eIF3d2 (GeneID 41475)	DRSC15651	1.90e6	1.95e6	1.32e6	1.43e6	inactive
Yip1d1 (GeneID 34696)	DRSC02166	1.83e6	1.83e6	1.37e6	1.54e6	inactive
ppan (GeneID 42502)	DRSC17030	1.56e6	1.65e6	8.93e5	8.68e5	inactive
Surf4 (GeneID 41864)	DRSC16875	1.24e6	1.35e6	1.15e6	1.25e6	inactive
BCL7-like (GeneID 31890)	DRSC17729	5.77e5		8.52e5		inactive
beat-Ia (GeneID 34947)	DRSC03489	1.77e6	1.76e6	1.36e6	1.53e6	inactive
CG15599 (GeneID 32503)	DRSC19668	1.42e6	1.46e6	1.06e6	1.10e6	inactive
CG13954 (GeneID 35959)	DRSC06442	1.53e6	1.54e6	1.27e6	1.31e6	inactive
CG12486 (retired record) (GeneID 39729)	DRSC09888	1.20e6	1.42e6	1.27e6	1.39e6	inactive
CG1638 (GeneID 43721)	DRSC15132	1.61e6	1.75e6	1.04e6	1.20e6	inactive
Bap60 (GeneID 32268)	DRSC19337	4.67e5		9.57e5		inactive
CG7290 (GeneID 40211)	DRSC10800	1.66e6	1.84e6	1.21e6	1.41e6	inactive
CG10969 (GeneID 39451)	DRSC09811	1.43e6	1.45e6	1.21e6	1.32e6	inactive
Ir60a (GeneID 37881)	DRSC04212	1.51e6	1.55e6	1.18e6	1.34e6	inactive
CG14280 (GeneID 42312)	DRSC14761	1.42e6	1.48e6	9.69e5	1.03e6	inactive
br (GeneID 44505)	DRSC17691	1.47e6	1.65e6	1.10e6	1.15e6	inactive
br (GeneID 44505)	DRSC17789	1.46e6	1.41e6	9.98e5	1.07e6	inactive
br (GeneID 44505)	DRSC18743	1.54e6	1.43e6	7.57e5	8.42e5	inactive
br (GeneID 44505)	DRSC18744	1.55e6	1.43e6	8.01e5	8.22e5	inactive

Records listed so far whose gene name begins with S or s:
target	dsRNA	Kc cell number, rep 1	Kc cell number, rep 2	S2R+ cell number, rep 1	S2R+ cell number, rep 2	activity call
Srrm1 (GeneID 39483)	DRSC09835	1.35e6	1.36e6	1.09e6	1.26e6	inactive
SPE (GeneID 42791)	DRSC15135	1.58e6	1.66e6	1.28e6	1.38e6	inactive
Surf4 (GeneID 41864)	DRSC16875	1.24e6	1.35e6	1.15e6	1.25e6	inactive
